According to PMC8242032, “Non-canonical function of DGCR8 in DNA double-strand break repair signaling and tumor radioresistance” (Nature Communications, 2021):
These are yes or no findings as the source states them, for the method shown. Binding seen in cells or lysates may run through a third protein. Some binding calls cover weakened binding; strength is not graded here. Where a sequence is shown, tags or fusion partners need not be part of it.

What was measured:
SFB-USP49 (human) = biological target: T1, SFB-USP49 (human) (UniProt Q70CQ1); test: pull-down; SFB-tagged DUBs individually co-transfected with MYC-DGCR8 into HEK293T cells; pulldown with S-protein beads, 4 °C, 2 h; immunoblotting for FLAG and MYC; screen and confirmatory pulldown
T1 sequence: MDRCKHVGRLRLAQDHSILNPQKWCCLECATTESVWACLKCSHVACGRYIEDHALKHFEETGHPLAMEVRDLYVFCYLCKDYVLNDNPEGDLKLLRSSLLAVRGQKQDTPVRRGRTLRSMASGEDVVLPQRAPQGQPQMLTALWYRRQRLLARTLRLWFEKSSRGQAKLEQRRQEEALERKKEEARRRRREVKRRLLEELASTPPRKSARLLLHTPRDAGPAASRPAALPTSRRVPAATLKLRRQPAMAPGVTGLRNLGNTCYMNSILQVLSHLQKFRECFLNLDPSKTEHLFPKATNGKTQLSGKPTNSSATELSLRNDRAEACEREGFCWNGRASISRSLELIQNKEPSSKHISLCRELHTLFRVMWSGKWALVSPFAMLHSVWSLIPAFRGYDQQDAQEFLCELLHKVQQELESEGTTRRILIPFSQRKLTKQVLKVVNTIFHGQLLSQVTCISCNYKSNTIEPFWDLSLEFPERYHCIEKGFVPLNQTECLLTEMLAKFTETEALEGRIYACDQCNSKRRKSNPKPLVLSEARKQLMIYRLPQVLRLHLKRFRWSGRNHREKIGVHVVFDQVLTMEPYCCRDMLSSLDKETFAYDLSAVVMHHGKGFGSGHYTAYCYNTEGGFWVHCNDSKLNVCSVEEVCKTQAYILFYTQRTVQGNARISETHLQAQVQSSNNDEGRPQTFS

SFB-USP36 (human) = biological target: T2, SFB-USP36 (human) (UniProt Q9P275); test: as above
T2 sequence: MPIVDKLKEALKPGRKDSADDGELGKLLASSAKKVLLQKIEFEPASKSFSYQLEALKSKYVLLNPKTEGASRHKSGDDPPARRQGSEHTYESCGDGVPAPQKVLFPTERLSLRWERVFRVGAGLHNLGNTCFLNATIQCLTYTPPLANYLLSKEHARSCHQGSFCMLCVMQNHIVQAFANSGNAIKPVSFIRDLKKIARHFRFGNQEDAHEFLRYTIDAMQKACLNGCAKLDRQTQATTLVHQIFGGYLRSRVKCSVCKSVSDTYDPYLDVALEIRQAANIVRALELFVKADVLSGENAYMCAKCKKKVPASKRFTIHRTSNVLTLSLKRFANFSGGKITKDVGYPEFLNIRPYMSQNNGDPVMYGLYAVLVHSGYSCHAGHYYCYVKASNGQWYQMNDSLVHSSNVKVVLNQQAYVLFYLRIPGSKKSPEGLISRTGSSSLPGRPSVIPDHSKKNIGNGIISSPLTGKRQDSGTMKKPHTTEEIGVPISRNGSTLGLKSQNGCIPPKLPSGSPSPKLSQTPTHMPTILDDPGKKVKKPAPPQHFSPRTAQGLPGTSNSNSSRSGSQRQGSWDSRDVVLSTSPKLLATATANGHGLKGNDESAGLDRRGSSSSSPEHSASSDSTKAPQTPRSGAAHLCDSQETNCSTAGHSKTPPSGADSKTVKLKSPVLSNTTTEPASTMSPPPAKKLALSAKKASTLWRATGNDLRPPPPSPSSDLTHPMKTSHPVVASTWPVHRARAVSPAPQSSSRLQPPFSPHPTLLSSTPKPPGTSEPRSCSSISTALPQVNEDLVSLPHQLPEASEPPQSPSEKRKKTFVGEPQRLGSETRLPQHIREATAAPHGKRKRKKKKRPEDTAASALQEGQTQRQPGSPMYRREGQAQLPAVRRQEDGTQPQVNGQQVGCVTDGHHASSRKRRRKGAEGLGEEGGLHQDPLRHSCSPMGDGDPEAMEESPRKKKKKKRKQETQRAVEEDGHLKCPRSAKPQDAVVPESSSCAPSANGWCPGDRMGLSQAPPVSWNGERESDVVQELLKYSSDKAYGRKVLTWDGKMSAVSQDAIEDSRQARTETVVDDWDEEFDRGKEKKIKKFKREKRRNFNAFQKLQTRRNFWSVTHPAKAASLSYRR

B1: MYC-DGCR8 (wild-type, full-length) (protein, UniProt Q8WYQ5 1-773)
chain: METDESPSPLPCGPAGEAVMESRARPFQALPREQSPPPPLQTSSGAEVMDVGSGGDGQSELPAEDPFNFYGASLLSKGSFSKGRLLIDPNCSGHSPRTARHAPAVRKFSPDLKLLKDVKISVSFTESCRSKDRKVLYTGAERDVRAECGLLLSPVSGDVHACPFGGSVGDGVGIGGESADKKDEENELDQEKRVEYAVLDELEDFTDNLELDEEGAGGFTAKAIVQRDRVDEEALNFPYEDDFDNDVDALLEEGLCAPKKRRTEEKYGGDSDHPSDGETSVQPMMTKIKTVLKSRGRPPTEPLPDGWIMTFHNSGVPVYLHRESRVVTWSRPYFLGTGSIRKHDPPLSSIPCLHYKKMKDNEEREQSSDLTPSGDVSPVKPLSRSAELEFPLDEPDSMGADPGPPDEKDPLGAEAAPGALGQVKAKVEVCKDESVDLEEFRSYLEKRFDFEQVTVKKFRTWAERRQFNREMKRKQAESERPILPANQKLITLSVQDAPTKKEFVINPNGKSEVCILHEYMQRVLKVRPVYNFFECENPSEPFGASVTIDGVTYGSGTASSKKLAKNKAARATLEILIPDFVKQTSEEKPKDSEELEYFNHISIEDSRVYELTSKAGLLSPYQILHECLKRNHGMGDTSIKFEVVPGKNQKSEYVMACGKHTVRGWCKNKRVGKQLASQKILQLLHPHVKNWGSLLRMYGRESSKMVKQETSDKSVIELQQYAKKNKPNLHILSKLQEEMKRLAEEREETRKKPKMSIVASAQPGGEPLCTVDV
binding (SFB-USP49 (human)): binds
binding (SFB-USP36 (human)): binds
